US10228365B2, “Method for measuring carbohydrate metabolism ability, and composition for use in said method” (priority 2012, dated 2019)
At least one compound was matched to its structure with a doubt left.

Tested on: glucose metabolism ability
Experiment: Monitoring of a diabetes stage with a breath test (I), oral U-13C-glucose
Type: in vivo, rats (male, ZDF rats, Lean or Fatty)
Conditions: FIG. 3

Measured: AUC120/insulin

OC[C@H]1OC(O)[C@H](O)[C@@H](O)[C@@H]1O (stereo partly drawn) [U-^13C-glucose]
significantly low: Group B diabetes severe onset | Group C diabetes moderate onset | Group D diabetes pre-onset stage
